From publication PMC13156308
Results are given in words; binding and its absence hold for the method and conditions named. In cells and extracts the contact can be indirect. A yes stands for co-enrichment or nearness to the bait. Other partners may have been found.

Chains of the proteins cited; added tags and fusions are not shown. Lines headed by an entry give the natural chain unless they say otherwise; changes in a name come on top. A line that says so, or that is headed by a name, gives the form on record, which may keep a tag or linker.
UniProt P97310: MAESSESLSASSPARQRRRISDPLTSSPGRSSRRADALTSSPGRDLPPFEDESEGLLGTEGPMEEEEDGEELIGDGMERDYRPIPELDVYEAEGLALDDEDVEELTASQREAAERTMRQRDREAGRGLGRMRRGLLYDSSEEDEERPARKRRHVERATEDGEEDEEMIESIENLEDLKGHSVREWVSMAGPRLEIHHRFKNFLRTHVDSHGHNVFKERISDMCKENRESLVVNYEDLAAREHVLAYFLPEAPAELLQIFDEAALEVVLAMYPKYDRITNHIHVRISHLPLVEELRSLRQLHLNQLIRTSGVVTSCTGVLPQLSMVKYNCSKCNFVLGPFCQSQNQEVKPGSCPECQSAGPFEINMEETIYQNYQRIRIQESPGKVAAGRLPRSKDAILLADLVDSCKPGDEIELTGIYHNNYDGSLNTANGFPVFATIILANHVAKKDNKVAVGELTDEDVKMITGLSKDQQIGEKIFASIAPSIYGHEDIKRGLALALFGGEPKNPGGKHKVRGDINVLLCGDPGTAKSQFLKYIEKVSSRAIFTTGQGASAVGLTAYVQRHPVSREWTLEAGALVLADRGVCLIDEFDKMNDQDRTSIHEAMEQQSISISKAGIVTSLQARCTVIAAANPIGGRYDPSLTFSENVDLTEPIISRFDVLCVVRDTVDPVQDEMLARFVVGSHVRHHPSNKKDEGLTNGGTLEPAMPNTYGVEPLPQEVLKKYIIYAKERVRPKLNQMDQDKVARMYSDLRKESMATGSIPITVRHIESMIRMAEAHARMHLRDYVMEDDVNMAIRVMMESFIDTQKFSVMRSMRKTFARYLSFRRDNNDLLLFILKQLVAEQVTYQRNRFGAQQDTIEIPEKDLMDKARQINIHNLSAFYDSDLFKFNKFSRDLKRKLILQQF
MCM2-2A-TurboID-3xHA (mouse) (P97310, form named): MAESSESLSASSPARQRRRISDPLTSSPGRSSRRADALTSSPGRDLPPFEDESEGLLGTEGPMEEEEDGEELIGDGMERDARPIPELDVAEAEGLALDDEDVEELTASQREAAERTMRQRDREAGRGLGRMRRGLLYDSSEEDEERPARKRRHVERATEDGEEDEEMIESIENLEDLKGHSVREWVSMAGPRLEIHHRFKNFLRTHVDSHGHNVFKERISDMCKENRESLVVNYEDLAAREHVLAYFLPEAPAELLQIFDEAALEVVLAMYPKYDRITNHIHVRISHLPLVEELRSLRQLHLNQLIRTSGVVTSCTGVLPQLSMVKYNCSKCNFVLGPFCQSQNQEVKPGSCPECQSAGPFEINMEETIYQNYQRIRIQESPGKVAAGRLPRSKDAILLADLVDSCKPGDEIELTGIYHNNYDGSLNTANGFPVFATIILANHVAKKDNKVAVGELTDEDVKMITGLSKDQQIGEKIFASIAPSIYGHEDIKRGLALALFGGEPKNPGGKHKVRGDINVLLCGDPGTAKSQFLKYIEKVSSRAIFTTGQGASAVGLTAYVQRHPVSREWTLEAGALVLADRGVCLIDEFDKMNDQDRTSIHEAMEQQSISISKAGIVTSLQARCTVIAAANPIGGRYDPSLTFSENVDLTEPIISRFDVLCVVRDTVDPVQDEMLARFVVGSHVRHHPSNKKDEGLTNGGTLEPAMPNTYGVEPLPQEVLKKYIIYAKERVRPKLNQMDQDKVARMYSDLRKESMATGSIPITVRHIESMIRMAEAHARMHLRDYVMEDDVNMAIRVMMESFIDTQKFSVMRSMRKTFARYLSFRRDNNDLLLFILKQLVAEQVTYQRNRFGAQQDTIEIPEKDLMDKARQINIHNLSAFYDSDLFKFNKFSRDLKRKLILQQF
UniProt O70126: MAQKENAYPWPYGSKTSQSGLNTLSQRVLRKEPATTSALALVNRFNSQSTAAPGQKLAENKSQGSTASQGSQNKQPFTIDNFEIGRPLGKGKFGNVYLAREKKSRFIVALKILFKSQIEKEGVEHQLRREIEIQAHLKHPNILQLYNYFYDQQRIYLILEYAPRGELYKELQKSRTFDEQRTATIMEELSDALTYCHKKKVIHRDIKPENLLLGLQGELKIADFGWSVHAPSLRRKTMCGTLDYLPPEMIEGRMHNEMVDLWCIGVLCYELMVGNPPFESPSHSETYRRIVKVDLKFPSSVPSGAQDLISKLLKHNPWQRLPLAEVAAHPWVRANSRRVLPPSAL
UniProt Q08943: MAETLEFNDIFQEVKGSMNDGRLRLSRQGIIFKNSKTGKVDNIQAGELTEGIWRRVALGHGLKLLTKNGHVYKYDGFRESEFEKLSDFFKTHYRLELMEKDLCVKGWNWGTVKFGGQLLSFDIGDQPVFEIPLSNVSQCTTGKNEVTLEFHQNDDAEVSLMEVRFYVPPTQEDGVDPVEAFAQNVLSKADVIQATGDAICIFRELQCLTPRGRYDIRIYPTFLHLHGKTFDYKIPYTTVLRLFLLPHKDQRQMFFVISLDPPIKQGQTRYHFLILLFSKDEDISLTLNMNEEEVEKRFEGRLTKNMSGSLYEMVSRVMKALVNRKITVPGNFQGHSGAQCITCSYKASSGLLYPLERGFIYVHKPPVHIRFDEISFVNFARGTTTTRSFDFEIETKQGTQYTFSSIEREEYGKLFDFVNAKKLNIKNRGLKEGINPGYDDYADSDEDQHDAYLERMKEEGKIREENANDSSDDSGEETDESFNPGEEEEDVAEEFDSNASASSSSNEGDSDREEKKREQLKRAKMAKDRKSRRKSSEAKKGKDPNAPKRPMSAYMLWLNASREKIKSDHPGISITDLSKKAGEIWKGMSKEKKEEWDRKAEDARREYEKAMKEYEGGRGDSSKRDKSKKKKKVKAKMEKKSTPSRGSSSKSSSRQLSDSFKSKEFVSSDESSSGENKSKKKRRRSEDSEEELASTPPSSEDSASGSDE
UniProt Q99MD9: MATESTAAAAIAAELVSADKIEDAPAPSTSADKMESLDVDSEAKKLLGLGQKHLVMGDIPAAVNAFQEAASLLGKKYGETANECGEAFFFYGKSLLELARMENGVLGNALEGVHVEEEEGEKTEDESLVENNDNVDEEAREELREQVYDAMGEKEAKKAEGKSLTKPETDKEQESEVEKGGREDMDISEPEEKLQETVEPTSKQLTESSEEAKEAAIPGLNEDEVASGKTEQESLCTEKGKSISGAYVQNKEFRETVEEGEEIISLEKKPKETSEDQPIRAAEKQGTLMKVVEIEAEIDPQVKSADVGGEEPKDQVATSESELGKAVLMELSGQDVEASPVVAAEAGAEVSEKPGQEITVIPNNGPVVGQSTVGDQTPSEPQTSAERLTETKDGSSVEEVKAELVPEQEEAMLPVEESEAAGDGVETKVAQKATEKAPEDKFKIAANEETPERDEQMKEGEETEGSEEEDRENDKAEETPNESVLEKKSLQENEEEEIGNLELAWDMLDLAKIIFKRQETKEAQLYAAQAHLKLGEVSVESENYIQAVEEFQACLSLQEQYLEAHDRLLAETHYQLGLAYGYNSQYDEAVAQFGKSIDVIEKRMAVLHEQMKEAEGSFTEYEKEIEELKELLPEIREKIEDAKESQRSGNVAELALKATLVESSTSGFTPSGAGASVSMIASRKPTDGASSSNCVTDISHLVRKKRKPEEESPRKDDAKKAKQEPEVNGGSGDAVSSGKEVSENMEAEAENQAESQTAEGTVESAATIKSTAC
UniProt Q9D0N7: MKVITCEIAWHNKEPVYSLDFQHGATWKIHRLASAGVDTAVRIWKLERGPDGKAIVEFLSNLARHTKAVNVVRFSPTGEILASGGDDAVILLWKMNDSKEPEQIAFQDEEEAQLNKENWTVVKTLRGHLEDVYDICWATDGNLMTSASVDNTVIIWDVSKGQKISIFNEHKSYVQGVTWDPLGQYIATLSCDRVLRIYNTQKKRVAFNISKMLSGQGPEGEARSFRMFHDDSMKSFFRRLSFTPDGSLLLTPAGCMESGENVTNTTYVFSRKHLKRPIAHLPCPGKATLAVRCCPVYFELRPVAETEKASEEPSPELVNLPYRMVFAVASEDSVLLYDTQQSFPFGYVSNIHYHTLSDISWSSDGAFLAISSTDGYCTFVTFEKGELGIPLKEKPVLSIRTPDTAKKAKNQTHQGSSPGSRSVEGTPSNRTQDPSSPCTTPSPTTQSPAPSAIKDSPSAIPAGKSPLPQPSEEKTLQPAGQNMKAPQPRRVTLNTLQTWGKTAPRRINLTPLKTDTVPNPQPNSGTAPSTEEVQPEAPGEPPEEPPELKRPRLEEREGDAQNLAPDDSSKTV
UniProt Q9JJ66: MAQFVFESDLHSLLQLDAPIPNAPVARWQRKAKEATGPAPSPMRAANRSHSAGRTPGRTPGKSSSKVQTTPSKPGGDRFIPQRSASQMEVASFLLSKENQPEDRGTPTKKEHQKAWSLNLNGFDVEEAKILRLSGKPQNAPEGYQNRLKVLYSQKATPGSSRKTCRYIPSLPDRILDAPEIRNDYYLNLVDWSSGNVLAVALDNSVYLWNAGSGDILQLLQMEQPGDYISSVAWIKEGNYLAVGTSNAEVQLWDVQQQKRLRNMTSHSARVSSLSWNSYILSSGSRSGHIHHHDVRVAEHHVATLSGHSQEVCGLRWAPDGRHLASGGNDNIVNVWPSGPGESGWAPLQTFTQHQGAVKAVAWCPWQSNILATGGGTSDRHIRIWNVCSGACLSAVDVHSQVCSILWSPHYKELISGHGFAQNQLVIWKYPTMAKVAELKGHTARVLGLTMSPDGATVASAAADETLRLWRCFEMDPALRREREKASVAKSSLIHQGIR
UniProt Q61937: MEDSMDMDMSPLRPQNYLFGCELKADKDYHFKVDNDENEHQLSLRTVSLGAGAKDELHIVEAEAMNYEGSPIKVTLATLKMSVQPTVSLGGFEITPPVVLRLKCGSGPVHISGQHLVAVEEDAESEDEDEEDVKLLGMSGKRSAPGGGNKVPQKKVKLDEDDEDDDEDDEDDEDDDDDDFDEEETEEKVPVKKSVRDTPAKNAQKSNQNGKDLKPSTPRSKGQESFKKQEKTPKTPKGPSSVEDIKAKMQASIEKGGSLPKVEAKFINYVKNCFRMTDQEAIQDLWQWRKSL
UniProt Q9QWF0: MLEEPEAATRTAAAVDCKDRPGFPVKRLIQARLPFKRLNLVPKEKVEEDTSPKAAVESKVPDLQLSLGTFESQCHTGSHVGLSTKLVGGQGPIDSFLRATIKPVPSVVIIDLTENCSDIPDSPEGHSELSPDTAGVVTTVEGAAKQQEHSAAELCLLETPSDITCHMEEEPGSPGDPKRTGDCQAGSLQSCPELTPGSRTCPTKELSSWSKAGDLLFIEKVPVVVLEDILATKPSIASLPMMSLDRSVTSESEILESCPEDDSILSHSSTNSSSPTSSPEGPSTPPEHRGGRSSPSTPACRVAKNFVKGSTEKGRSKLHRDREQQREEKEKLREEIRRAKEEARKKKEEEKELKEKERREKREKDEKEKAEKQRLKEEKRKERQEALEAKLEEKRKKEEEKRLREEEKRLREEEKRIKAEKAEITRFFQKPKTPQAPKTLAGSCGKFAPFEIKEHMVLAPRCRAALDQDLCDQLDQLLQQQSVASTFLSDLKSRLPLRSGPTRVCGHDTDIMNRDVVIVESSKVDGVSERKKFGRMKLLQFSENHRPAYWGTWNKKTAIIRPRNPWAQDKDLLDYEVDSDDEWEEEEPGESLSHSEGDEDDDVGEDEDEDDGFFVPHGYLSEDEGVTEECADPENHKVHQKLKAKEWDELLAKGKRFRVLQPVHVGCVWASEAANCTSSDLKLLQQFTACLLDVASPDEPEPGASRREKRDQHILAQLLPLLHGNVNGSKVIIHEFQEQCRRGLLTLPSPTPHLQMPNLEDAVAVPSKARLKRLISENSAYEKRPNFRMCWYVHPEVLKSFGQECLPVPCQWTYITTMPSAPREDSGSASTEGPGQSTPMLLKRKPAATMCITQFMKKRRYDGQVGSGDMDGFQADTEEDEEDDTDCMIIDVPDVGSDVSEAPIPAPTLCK
UniProt Q8VEE4: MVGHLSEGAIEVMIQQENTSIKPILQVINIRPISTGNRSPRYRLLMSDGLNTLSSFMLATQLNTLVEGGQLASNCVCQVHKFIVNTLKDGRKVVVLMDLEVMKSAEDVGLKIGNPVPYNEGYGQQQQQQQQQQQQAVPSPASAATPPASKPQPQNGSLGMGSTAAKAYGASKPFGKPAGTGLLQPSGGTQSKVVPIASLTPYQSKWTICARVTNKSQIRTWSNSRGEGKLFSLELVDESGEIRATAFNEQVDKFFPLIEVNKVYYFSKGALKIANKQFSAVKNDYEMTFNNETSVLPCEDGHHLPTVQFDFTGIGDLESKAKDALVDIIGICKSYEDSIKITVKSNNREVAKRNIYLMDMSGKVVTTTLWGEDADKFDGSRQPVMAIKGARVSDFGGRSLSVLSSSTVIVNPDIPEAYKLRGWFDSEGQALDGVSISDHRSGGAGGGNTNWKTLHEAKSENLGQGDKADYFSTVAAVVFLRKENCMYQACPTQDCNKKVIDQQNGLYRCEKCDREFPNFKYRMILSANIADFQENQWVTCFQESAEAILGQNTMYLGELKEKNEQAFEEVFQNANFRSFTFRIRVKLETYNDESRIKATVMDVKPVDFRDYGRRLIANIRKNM

How the values were obtained:
[1] = biological target: MCM2-2A-TurboID-3xHA (mouse) (mouse) (UniProt P97310); experiment: proximity labelling; bait-TurboID stably expressed in S-phase-synchronised NIH3T3 cells, 500 uM biotin 1 h, RIPA lysis, streptavidin beads, LC-MS/MS, four replicates; enriched: bait/Control >2, P <0.05
[2] = biological target: MCM2-TurboID-3xHA (mouse) (mouse) (UniProt P97310); experiment: as above
POLE4-TurboID (mouse) = biological target: T1, POLE4-TurboID (mouse) (UniProt Q9CQ36); experiment: as above
T1 sequence: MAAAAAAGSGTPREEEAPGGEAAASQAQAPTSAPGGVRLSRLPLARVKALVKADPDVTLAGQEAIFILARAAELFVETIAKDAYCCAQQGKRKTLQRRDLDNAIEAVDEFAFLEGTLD

POLE3-TurboID (mouse) [3] = biological target: T2, POLE3-TurboID (mouse) (UniProt Q9JKP7); experiment: as above
T2 sequence: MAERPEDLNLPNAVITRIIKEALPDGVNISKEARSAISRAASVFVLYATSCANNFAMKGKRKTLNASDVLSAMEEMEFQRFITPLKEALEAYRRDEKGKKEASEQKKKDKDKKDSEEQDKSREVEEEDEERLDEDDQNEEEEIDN

POLE3-TurboID (mouse) [4] = biological target: T2, POLE3-TurboID (mouse); experiment: proximity labelling; streptavidin beads from bait-TurboID NIH3T3 cells, read by western blot

Substance	binding [1]	binding [2]	binding (POLE4-TurboID (mouse))	binding (POLE3-TurboID (mouse) [3])	binding (POLE3-TurboID (mouse) [4])
DNMT1 (from UniProt P13864 1-1620)	binds	binds	–	–	–
Aurora kinase B (AURKB) (from UniProt O70126 1-345)	–	binds	binds	binds	–
SSRP1 (mouse) (from UniProt Q08943 1-708)	–	binds	binds	binds	–
NASP (from UniProt Q99MD9 1-773)	–	binds	binds	binds	–
CHTF18 (from UniProt Q8BIW9 1-969)	–	–	binds	binds	–
CHAF1B (from UniProt Q9D0N7 1-572)	–	binds	binds	binds	–
CDC20 (from UniProt Q9JJ66 1-499)	–	–	binds	binds	–
NPM1 (from UniProt Q61937 1-292)	–	binds	binds	binds	binds
CHAF1A (from UniProt Q9QWF0 1-911)	–	binds	binds	binds	–
RPA1 (from UniProt Q8VEE4 1-623)	–	binds	binds	binds	–
